Laboratory results reported in PMC3953403, “Drosophila SNAP-29 Is an Essential SNARE That Binds Multiple Proteins Involved in Membrane Traffic” (PLoS ONE, 2014).
No constants are given. Whether binding was seen depends on the method and setting. In cells and extracts the contact can be indirect. Where a sequence is shown, tags or fusion partners need not be part of it.

Biological target: T1, GST-dSNAP-25 (Drosophila) (UniProt P36975)
T1 sequence: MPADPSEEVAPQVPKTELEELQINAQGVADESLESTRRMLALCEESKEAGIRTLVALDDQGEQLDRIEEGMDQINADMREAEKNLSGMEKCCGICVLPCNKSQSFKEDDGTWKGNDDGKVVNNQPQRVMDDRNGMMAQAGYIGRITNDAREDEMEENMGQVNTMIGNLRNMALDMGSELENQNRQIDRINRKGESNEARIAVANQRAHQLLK
Experiment: pull-down; 0.5 mg GST fusion or GST on 120 uL glutathione beads, incubated with pre-cleared S2 cell lysate (PLC or NP40 lysis buffer, 0.1% gelatin, 0.1% BSA); washes 50 mM HEPES pH 7.5, 150 mM NaCl, 2 mM EDTA; western blot; only the target purified

Substance	binding
DAP160, endogenous (Drosophila (endogenous in S2 cells))	no binding (tested: 0.5 mg on 120 uL beads)
dEHD1, endogenous (Drosophila (endogenous in S2 cells))	no binding (tested: 0.5 mg on 120 uL beads)
